Results as given in paper PMC4024641.
Results are given in words; binding and its absence hold for the method and conditions named. Binding seen in cells or lysates may run through a third protein. These calls come from enrichment with a bait or labelling near it, and not all partners need be listed. For some assays here: No binding means not detected with the bait. Where a sequence is shown, tags or fusion partners need not be part of it.

Protein sequences, listed by entry. Tags and fused reporters are not part of them.
UniProt O60016: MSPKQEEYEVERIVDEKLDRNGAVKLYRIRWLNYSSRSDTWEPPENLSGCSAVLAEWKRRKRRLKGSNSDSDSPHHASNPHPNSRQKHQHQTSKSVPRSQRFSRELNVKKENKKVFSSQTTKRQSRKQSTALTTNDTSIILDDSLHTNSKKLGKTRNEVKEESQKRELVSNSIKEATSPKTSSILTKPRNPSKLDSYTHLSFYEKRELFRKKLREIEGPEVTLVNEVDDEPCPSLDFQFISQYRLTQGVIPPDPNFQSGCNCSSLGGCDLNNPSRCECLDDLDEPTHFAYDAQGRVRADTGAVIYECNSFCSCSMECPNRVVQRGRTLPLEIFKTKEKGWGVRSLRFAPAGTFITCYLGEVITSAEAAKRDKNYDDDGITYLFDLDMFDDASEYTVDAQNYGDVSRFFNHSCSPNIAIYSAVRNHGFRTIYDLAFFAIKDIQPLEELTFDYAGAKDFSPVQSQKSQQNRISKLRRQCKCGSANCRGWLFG

T1: Ars2-3×FLAG (S. pombe) (UniProt O94326)
T1 sequence: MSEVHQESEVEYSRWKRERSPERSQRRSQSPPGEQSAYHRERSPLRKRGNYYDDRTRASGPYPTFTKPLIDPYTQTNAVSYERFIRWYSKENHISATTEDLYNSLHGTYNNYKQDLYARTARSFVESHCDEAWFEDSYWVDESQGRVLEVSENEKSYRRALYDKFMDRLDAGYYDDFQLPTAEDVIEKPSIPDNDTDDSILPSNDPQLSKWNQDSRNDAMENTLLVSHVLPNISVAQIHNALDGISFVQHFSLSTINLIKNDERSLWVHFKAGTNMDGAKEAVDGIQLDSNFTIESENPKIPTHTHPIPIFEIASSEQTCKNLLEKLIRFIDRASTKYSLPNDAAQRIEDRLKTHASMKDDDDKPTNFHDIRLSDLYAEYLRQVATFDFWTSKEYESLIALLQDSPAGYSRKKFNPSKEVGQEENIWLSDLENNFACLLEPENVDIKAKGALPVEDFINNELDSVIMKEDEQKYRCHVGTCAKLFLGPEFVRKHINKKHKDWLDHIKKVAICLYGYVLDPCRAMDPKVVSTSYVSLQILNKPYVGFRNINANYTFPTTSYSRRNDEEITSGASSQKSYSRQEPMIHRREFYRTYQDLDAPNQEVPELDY

T2: Red1-3×FLAG (S. pombe) (UniProt Q9UTR8)
T2 sequence: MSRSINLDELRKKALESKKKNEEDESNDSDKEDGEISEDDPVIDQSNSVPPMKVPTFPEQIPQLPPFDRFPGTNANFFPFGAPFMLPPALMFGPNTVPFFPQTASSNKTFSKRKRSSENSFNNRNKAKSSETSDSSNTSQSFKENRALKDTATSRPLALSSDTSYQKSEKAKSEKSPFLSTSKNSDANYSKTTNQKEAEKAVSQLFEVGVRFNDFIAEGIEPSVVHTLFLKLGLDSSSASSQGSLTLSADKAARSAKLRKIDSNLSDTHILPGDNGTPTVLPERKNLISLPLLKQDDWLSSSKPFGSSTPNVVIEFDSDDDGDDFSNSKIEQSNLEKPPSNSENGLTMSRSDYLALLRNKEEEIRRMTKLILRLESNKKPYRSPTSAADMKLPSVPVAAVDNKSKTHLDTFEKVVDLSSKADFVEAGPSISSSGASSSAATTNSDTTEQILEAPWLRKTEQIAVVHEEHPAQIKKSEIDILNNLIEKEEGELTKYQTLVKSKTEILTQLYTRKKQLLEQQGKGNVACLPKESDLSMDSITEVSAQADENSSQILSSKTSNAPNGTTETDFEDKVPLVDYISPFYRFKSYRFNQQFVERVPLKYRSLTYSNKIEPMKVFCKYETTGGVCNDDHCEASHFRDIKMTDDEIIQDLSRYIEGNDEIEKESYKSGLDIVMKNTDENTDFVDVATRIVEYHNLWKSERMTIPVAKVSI

T3: Rmn1-13×myc (S. pombe) (UniProt Q9USP9)
T3 sequence: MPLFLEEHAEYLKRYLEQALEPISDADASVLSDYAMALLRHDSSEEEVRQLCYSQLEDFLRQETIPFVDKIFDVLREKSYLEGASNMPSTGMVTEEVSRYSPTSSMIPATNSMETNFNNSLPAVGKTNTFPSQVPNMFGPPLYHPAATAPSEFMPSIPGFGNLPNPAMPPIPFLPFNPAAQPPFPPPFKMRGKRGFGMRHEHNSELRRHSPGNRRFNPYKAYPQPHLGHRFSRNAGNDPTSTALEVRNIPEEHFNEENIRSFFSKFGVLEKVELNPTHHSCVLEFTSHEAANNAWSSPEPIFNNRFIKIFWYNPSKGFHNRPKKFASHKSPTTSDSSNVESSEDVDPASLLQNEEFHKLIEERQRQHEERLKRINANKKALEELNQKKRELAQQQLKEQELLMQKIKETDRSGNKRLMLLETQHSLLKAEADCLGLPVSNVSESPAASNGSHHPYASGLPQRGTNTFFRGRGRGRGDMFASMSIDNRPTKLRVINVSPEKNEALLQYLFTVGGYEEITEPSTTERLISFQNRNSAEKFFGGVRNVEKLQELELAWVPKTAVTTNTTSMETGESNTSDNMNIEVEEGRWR


Experiments:
Assay in all cases: affinity purification with mass spectrometry; 3×FLAG- or 13×myc-tagged bait purified from S. pombe cell extract on α-FLAG (M2) or α-myc (9E10) antibody cross-linked to Protein G Dynabeads, 4°C for 3 h, IP buffer (20 mM HEPES pH 7.5, 100 mM NaCl, 5 mM MgCl2, 1 mM EDTA, 10% glycerol, 0.25% Triton X-100, 0.5 mM DTT); LC-MS/MS; Red1-3×FLAG also from iss10Δ, rmn1Δ and Mtl1 knockdown cells
Ars2-3×FLAG (S. pombe) = molecular target: T1, Ars2-3×FLAG (S. pombe)
Red1-3×FLAG (S. pombe) = molecular target: T2, Red1-3×FLAG (S. pombe)
Rmn1-13×myc (S. pombe) = molecular target: T3, Rmn1-13×myc (S. pombe)

Row | Molecule | binding (Ars2-3×FLAG (S. pombe)) | binding (Red1-3×FLAG (S. pombe)) | binding (Rmn1-13×myc (S. pombe))
1 | Clr4 (from UniProt O60016 1-490) | no binding |  | 
2 | Pab2 (protein, UniProt O14327 1-166) MSDQDALDTQEKELLEMKERVAEMEAEAAKLRAMQEQLDNETEALRNDKESIDAQSVYVGNVDYSVTPEELQSHFASCGSVNRVTILCDKFTGHPKGFAYIEFSEPSLVPNALLLNGSMLHERPLKVTPKRTNVPGMSRGRGRGRGRGRGRGRGGYRGRARGFAPY |  | binds | binds
3 | Pla1 (protein, UniProt Q10295 1-566) MTTKQWGITPPISTAPATEQENALNTALINELKNQNLFESPAESEKRVKVLDELQQITTEFVKKVSLAKHMNEKMANEAGGKIFTYGSYRLGVYGPGSDIDTLVVVPKHVSRDNFFQDLEPMLREREEVTDLAAVPDAYVPIIKFKFLGISIDLIFARLSVPRVPRDLELSDNNLLKGVEERCVLSLNGTRVTDQILQLVPNRAVFKHALRAIKFWAQRRAIYANVVGFPGGVAWAMMVARICQLYPNAVSSVIVAKFFRILHQWNWPQPILLKPIEDGPLQVRIWNPKLYPSDKAHRMPIITPAYPSMCATHNITLSTQTIILREMVRAGEIADQIMVKALPWSALFQKHDFFHRYKHYLTITAAAKTAEAQLKWAGLVESKLRHLVTRLELVDAIALAHPFNKGFDKVYNCSSEEEAQQVASGVTLEVAYESTDHEKLANDTVNEEKADNTESKADGSENGEKQIFPVYTTTCYIGLELEKKKGHPIKRLDISWPTQEFYELCKKWDKYDDTLMNVFIKNTKNTALPDEVFEPGEERPKATKKRSTADTAHSTEQLKRQKVSTA |  | binds | binds
